According to US20060281670A1, “Compositions and methods for modulating angiogenesis” (Wisconsin Alumni Research Foundation (WARF), priority 2005, published 2006):
Entries after “also recorded” stand apart in the source; their conditions may differ. Read-outs that look alike come from different tables or passages of the source. At least one peptide structure holds a part that was inferred or is arguable (an end, a ring closure or a residue). For part of these data: For at least one compound, name, drawing or mass did not settle the structure.

Experiments:
[1] = system: Flt-1 and Flk-1 (VEGF receptors) in YSECs; test: Gene expression analysis by real-time RT-PCR; type: cell-based, mouse
Protocol: Real-time RT-PCR was conducted Total RNA was purified with Trizol (Invitrogen). cDNA was prepared by annealing RNA (1 μg) with 250 ng of a 1:5 mixture of random and oligo(dT) primers (Promega) at 68° C. for 10 min, followed by incubation with Moloney Murine Leukemia Virus reverse transcriptase (Invitrogen) with 10 mM dithiothreitol, RNasin (Promega), and 0.5 mM dNTPs at 42° C. for 1 h. Reactions were diluted to a final volume of 100 μl and subjected to heat-inactivation at 98° C. for 10 min. Reactions (25 μl) contained 2.5 μl of cDNA, 12.5 μl of SYBR Green Master Mix (Applied Biosystems), and appropriate primers. Product accumulation was monitored by SYBR Green fluorescence. Control reactions lacking RT yielded little or no signals. The relative expression levels were determined from a standard curve of serial dilutions of cDNA samples from untreated control cells, and measurements were conducted under conditions of linearity.
Real time RT-PCR primers were designed using PRIMER EXPRESS 1.0 (PE Applied Biosystems) to amplify 50-150 bp amplicons and were based on GenBank Ensembl sequences.

HUVECs [2] = test: Cell migration analysis by time-lapse video microscopy; type: cell-based, human; details: NK-B alone 2 h, monitored 2 h
[3] = system: FAK kinase, p42/44 MAPK, and Akt in YSECs; test: Western blot of phosphorylated FAK, p42/44 MAPK and Akt; type: cell-based, mouse; details: NK-B/IBMX 1 h, then Matrigel 0.5-5 h
[4] = system: human aortic endothelial cells (HAECs); test: Vascular network assembly assay on Matrigel; type: cell-based; details: 2 h
calreticulin in YSECs = test: Calreticulin 2D gel electrophoresis and Western blot; type: cell-based, mouse; details: 1 h supplement-free medium, then 10 min supplemented medium
Protocol: […] Cells were processed and proteins analyzed as described above in Example 2.
Cells were harvested, washed twice with ice-cold PBS, and lysed in lysis buffer containing 10 mM Tris (pH 7.4), 0.3% SDS, 100 μg/mL Ribonuclease A (Sigma), 200 μg/mL DNase I (Sigma), 20 μg/mL leupeptin (Sigma), 6 μg/mL E-64 (Sigma), 1 mM EDTA (Calbiochem), and 100 μg/mL benzamidine (Sigma). Cells were incubated on ice for 30 min, an equal volume of loading buffer containing 60 mM Tris (pH 6.8), 5% SDS, 10% glycerol was added, and samples were boiled for 5 min. 2D gel electrophoresis was conducted using pH 3.5-10 ampholines, and proteins were detected by Coomassie Blue staining. […]
The following antibodies were used for Western blots: Anti-phospho-FAK (Tyr-397) (Biosource, 44-624G); anti-FAK, anti-phospho-Akt (Ser 473), anti-Akt, anti-phospho-p44/42 MAP kinase (Thr 202/Tyr 204), anti-p44/42 MAP kinase antibodies (Cell Signaling Technology); anti-calreticulin (Upstate, 06-661); anti-α-tubulin (Calbiochem); anti Flt-1 (Santa Cruz Biotech, C-17); anti-Flk-1 (Cell Signaling Technologies, 2479). […] Extracts were resolved on SDS polyacrylamide gels, transferred to Immobilon P membranes (Millipore, Billerica, Mass.), and analyzed by Western blotting. Proteins were detected by chemiluminescence using ECL-Plus (Amersham Biosciences Piscataway, N.J.).

HUVECs [5] = test: Vascular network assembly assay on Matrigel; type: cell-based, human
YSECs [6] = test: Cell proliferation assay; type: cell-based, mouse; details: NK-B alone, 24 h
[7] = system: Yolk sac endothelial cells (YSECs)
[8] = system: mouse yolk sac and aortic endothelial cells; details: cited from earlier work
YSECs [9] = test: cAMP assay; type: cell-based, mouse; details: supplement-free M200 medium
Protocol: Cells were cultured in 6-well plates (2×10^5 cells/well), washed with supplement-free M200 medium and treated with indicated reagents at 37° C. The reactions were terminated by aspiration of the medium. Cells were washed with PBS and lysed in 500 μl of 0.1 N HCl containing 0.5% Triton X-100. cAMP was assayed in cell lysates (100 μl) using a direct cAMP enzyme-linked immunosorbent assay (Assay Designs, Inc., Ann Arbor, Mich.).

YSECs [10] = test: Calcium imaging (Ca+2 oscillations); type: cell-based, mouse; details: YSECs on Matrigel, supplemented medium
Protocol: Cells were incubated for ˜30 min in 4 μM fluo-4/AM (Molecular Probes, Carlsbad, Calif.) in supplement-free M200 medium at 37° C., trypsinized, plated on Matrigel with indicated reagents, and allowed to adhere for 10 min. Time-lapse video microscopy with an Olympus AX70 laser scanning confocal microscope was used to measure intracellular Ca^+2 as described previously (Robles et al., 2003). An argon laser at 488 nm was used to excite Fluo-4, and the emitted light was detected at wavelengths>510 nm. Images were acquired at 15 s intervals and analyzed using Image J (Image Processing and Analysis in JAVA, Nat'l Inst. Health). When indicated, the fluorescence intensity in the region of interest (F) was normalized by dividing the Ca+2 signal by the fluorescence intensity of the resting cell at time 0 (F0).

YSECs [11] = test: Cell migration analysis by time-lapse video microscopy; type: cell-based, mouse; details: monitored 2 h
[12] = system: Flt-1 and Flk-1 (VEGF receptors) in HUVECs; test: Gene expression analysis by real-time RT-PCR; type: cell-based, human; details: NK-B/IBMX 1-2 h, then supplemented medium
[13] = system: human microvascular endothelial cells (HMVECs); test: Vascular network assembly assay on Matrigel; type: cell-based; details: HMVEC; IBMX 250 μM + NK-B 100 μM, 2 h; 12 h
HUVECs [14] = test: Cell proliferation assay; type: cell-based, human; details: NK-B alone, 24 h
[15] = IBMX+NK-B 1 h, Matrigel 0.5-5 h

CSCC[C@H](NC(=O)[C@H](CC(C)C)NC(=O)CNC(=O)[C@@H](NC(=O)[C@H](Cc1ccccc1)NC(=O)[C@H](Cc1ccccc1)NC(=O)[C@H](CC(=O)O)NC(=O)[C@H](Cc1c[nH]cn1)NC(=O)[C@H](CCSC)NC(=O)[C@@H](N)CC(=O)O)C(C)C)C(N)=O [NK-B]
E Cadherin, Notch-1 and Notch-4 transcription [1, 15]: no significant changes | VEGF mRNA level [1, 15]: increased | Flt-1 and Flk-1 expression ([1]; NK-B/IBMX 1 h, then supplemented medium): down regulating both the Type I and Type II VEGF receptors; also recorded: blocks transcriptional induction of both VEGF receptors Flt-1 and Flk-1; also recorded: down regulates the major receptors, Flk-1 and Flt-1 | migration of endothelial cells (HUVECs [2]): significant effect | AKT phosphorylation [3]: not AKT phosphorylation | FAK autophosphorylation on Y397 [3]: decreased FAK autophosphorylation on Y397; also recorded: inhibits both FAK and ERK1/2 phosphorylation | phosphorylation of p42/p44 MAPK (ERK1/2) [3]: reduced phosphorylation of p42/p44; also recorded: inhibits both FAK and ERK1/2 phosphorylation | tube formation ([4]; HAEC, IBMX 250 μM with or without NK-B 100 μM, 12 h): inhibited | vascular network assembly ([4]; HAECs, NK-B, U46619 (2 μM) or both, 16 h on Matrigel): mildly disrupted network assembly | calreticulin expression (calreticulin in YSECs): the intensity of the band increased; also recorded: much higher induction of calreticulin | tube formation (HUVECs [5]; HUVEC, IBMX 250 μM with or without NK-B 100 μM, 2 h, 12 h): inhibited | ability to form vascular networks (HUVECs [5]; HUVECs, NK-B alone 2 h, 16 h on Matrigel): severely inhibited | vascular network assembly (HUVECs [5]; HUVECs, NK-B, U46619 (2 μM) or both, 2 h, 16 h on Matrigel): mildly disrupted network assembly | cell proliferation (YSECs [6]): has little effect on cell proliferation | formation of the endothelial tubular network (vascular network assembly) ([7]; NK-B 100 μM, IBMX 100 μM, 1 h in supplement-free medium, 20 h on Matrigel): inhibits the formation of the endothelial tubular network | vascular network assembly ([7]; NK-B (100 μM) alone, 6 h): greatly reduced network assembly | vascular network assembly ([7]; NK-B (100 μM) alone, 20 h): more similar to the control at 6 hours | ability to form vascular networks ([7]; NK-B alone 1 h, 16 h on Matrigel): severely inhibited | reversibility of vascular network assembly blockade ([7]; NK-B removed after 15-20 h on Matrigel, cultured further 16-20 h): its effect is reversible | vascular network assembly ([7]; NK-B, U46619 (2 μM) or both, 1 h, 16 h on Matrigel): mildly disrupted network assembly | maintenance of already formed tubes ([7]; tubes formed 16 h, then 20 h with NK-B): does not block the maintenance signal for already formed tubes | cAMP accumulation [8]: induces cAMP accumulation | cAMP (YSECs [9]): increasing cAMP levels; also recorded: decrease the amount of cAMP | Ca+2 oscillations (YSECs [10]): abrogates growth factor (GF)-dependent Ca^+2 oscillations; also recorded: decreasing the amount of Ca^2+ oscillations | cell motility and adhesion (YSECs [11]; IBMX+NK-B (100 μM) 1 h): decreasing cell motility and adhesion | migration of endothelial cells (YSECs [11]; NK-B alone 1 h): significant effect | Flt-1 and Flk-1 expression [12]: down regulating both the Type I and Type II VEGF receptors; also recorded: down regulates the major receptors, Flk-1 and Flt-1 | tube formation [13]: had no effect on the tube formation ability | cell proliferation (HUVECs [14]): has little effect on cell proliferation

C=C[C@@]1(C)CC(=O)[C@]2(O)[C@@]3(C)[C@@H](O)CCC(C)(C)[C@@H]3[C@H](O)[C@H](OC(C)=O)[C@@]2(C)O1 [forskolin]
Flt-1 and Flk-1 transcription ([1]; forskolin (10 μM)/IBMX, calreticulin (13 μg/ml), vasostatin (5 μg/ml), 1, 2 or 5 h on Matrigel): decreasing the transcription of the major VEGF receptors Flt-1 and Flk-1
